## Assay results

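Malaria parasite (P. falciparum) lines kept in red blood cells; parasite DNA is measured by SYBR Green fluorescence after lysis, 72 h after compound addition. Each compound was titrated across a series from about 0.000037 to 29 µM. The number is the fitted AC50, the concentration giving a half-maximal change in signal; a lower value means higher potency, whether the curve shows a decrease or an increase. Calls follow the curve class and fit quality: every row here is inconclusive, covering signal-raising curves and weak, poorly fitted, partial or highest-dose-only inhibition curves.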

Values are in nM. All entries here are filed as inconclusive. Only part of the assay is shown, chiefly results filed as inconclusive. Potencies fitted to partial, single-point or poorly fitting curves are rough. Some entries filed as inconclusive have a full curve.

compound,tested on / at,fitted potency (nM),remark
CN1CCC[C@@H]1CCO[C@](C)(c1ccccc1)c1ccc(Cl)cc1,CP217,11220,"inhibitor, single point"
CN1CCC[C@@H]1CCO[C@](C)(c1ccccc1)c1ccc(Cl)cc1,CP286,10000,"inhibitor, single point"
CN1CCC[C@@H]1CCO[C@](C)(c1ccccc1)c1ccc(Cl)cc1,CP297,10690,"inhibitor, partial curve, poor fit"
CN1CCC[C@@H]1CCO[C@](C)(c1ccccc1)c1ccc(Cl)cc1,PC15,11220,"inhibitor, single point"
CN1CCC[C@@H]1CCO[C@](C)(c1ccccc1)c1ccc(Cl)cc1,Dd2,10000,"inhibitor, single point"
CN1CCC[C@@H]1CCO[C@](C)(c1ccccc1)c1ccc(Cl)cc1,CP305,9528,"inhibitor, single point"
CN1CCC[C@@H]1CCO[C@](C)(c1ccccc1)c1ccc(Cl)cc1,GB4,13459,"inhibitor, partial curve"
CN1CCC[C@@H]1CCO[C@](C)(c1ccccc1)c1ccc(Cl)cc1,TAB109,8912,"inhibitor, partial curve"
CN1CCC[C@@H]1CCO[C@](C)(c1ccccc1)c1ccc(Cl)cc1,AA1029,11220,"inhibitor, partial curve"
CN1CCC[C@@H]1CCO[C@](C)(c1ccccc1)c1ccc(Cl)cc1,CP335,19011,"inhibitor, single point"
CN1CCC[C@@H]1CCO[C@](C)(c1ccccc1)c1ccc(Cl)cc1,CP237,11220,"inhibitor, single point"
CN1CCC[C@@H]1CCO[C@](C)(c1ccccc1)c1ccc(Cl)cc1,CP329,19011,"inhibitor, single point"
CN1CCC[C@@H]1CCO[C@](C)(c1ccccc1)c1ccc(Cl)cc1,PC49,10000,"inhibitor, single point"
CN1CCC[C@@H]1CCO[C@](C)(c1ccccc1)c1ccc(Cl)cc1,P93_24,10000,"inhibitor, partial curve"
CN1CCC[C@@H]1CCO[C@](C)(c1ccccc1)c1ccc(Cl)cc1,CP203,5358,"inhibitor, partial curve, poor fit"
COc1ccc(C(=O)CC(=O)c2ccc(C(C)(C)C)cc2)cc1,CP260,11220,"inhibitor, single point"
COc1ccc(C(=O)CC(=O)c2ccc(C(C)(C)C)cc2)cc1,Dd2,10000,"inhibitor, single point"
COc1ccc(C(=O)CC(=O)c2ccc(C(C)(C)C)cc2)cc1,CP286,17782,"inhibitor, single point"
COc1ccc(C(=O)CC(=O)c2ccc(C(C)(C)C)cc2)cc1,HB3,10000,"inhibitor, single point"
COc1ccc(C(=O)CC(=O)c2ccc(C(C)(C)C)cc2)cc1,CP215,15101,"inhibitor, single point"
COc1ccc(C(=O)CC(=O)c2ccc(C(C)(C)C)cc2)cc1,ICS,17782,"inhibitor, single point"
COc1ccc(C(=O)CC(=O)c2ccc(C(C)(C)C)cc2)cc1,parasite line B,17782,"inhibitor, single point"
COc1ccc(C(=O)CC(=O)c2ccc(C(C)(C)C)cc2)cc1,CP237,11220,"inhibitor, single point"
COc1ccc(C(=O)CC(=O)c2ccc(C(C)(C)C)cc2)cc1,W2,756.9,"inhibitor, full curve"
COc1ccc(C(=O)CC(=O)c2ccc(C(C)(C)C)cc2)cc1,7G8,17782,"inhibitor, single point"
Cc1ncc(COP(=O)(O)O)c(CN)c1O,CP247,3548,"inhibitor, single point"
Cc1ncc(COP(=O)(O)O)c(CN)c1O,W2,1.7,"inhibitor, full curve, poor fit"
Oc1ccc(C2CNCCc3c2cc(O)c(O)c3Cl)cc1 (stereo not shown),W2,19011,"inhibitor, partial curve, poor fit"
Oc1ccc(C2CNCCc3c2cc(O)c(O)c3Cl)cc1 (stereo not shown),CP286,17782,"inhibitor, single point"
Oc1ccc(C2CNCCc3c2cc(O)c(O)c3Cl)cc1 (stereo not shown),GB4,9528,"inhibitor, partial curve"
Oc1ccc(C2CNCCc3c2cc(O)c(O)c3Cl)cc1 (stereo not shown),ICS,17782,"inhibitor, single point"
O=C1c2c(O)ccc(O)c2C(=O)c2c(NCCNCCO)ccc(NCCNCCO)c21,CP262,5103,"inhibitor, single point"
O=C1c2c(O)ccc(O)c2C(=O)c2c(NCCNCCO)ccc(NCCNCCO)c21,JCK,7943,"inhibitor, single point"
O=C1c2c(O)ccc(O)c2C(=O)c2c(NCCNCCO)ccc(NCCNCCO)c21,ECU,7080,"inhibitor, single point"
O=C1c2c(O)ccc(O)c2C(=O)c2c(NCCNCCO)ccc(NCCNCCO)c21,CP256,7080,"inhibitor, single point"
O=C1c2c(O)ccc(O)c2C(=O)c2c(NCCNCCO)ccc(NCCNCCO)c21,CP192,5103,"inhibitor, single point"
O=C1c2c(O)ccc(O)c2C(=O)c2c(NCCNCCO)ccc(NCCNCCO)c21,CP265,7080,"inhibitor, single point"
O=C1c2c(O)ccc(O)c2C(=O)c2c(NCCNCCO)ccc(NCCNCCO)c21,CP325,5103,"inhibitor, single point"
O=C1c2c(O)ccc(O)c2C(=O)c2c(NCCNCCO)ccc(NCCNCCO)c21,CP203,6424,"inhibitor, single point"
O=C1c2c(O)ccc(O)c2C(=O)c2c(NCCNCCO)ccc(NCCNCCO)c21,FAB9,3981,"inhibitor, partial curve"
O=C1c2c(O)ccc(O)c2C(=O)c2c(NCCNCCO)ccc(NCCNCCO)c21,CP329,5103,"inhibitor, single point"
O=C1c2c(O)ccc(O)c2C(=O)c2c(NCCNCCO)ccc(NCCNCCO)c21,PC15,3981,"inhibitor, single point"
C=C1CC[C@H](O)C/C1=C/C=C1\CCC[C@]2(C)[C@@H]([C@H](C)CCCC(C)C)CC[C@@H]12,PAD,12589,"inhibitor, single point"
C=C1CC[C@H](O)C/C1=C/C=C1\CCC[C@]2(C)[C@@H]([C@H](C)CCCC(C)C)CC[C@@H]12,P93_24,17782,"inhibitor, single point"
C=C1CC[C@H](O)C/C1=C/C=C1\CCC[C@]2(C)[C@@H]([C@H](C)CCCC(C)C)CC[C@@H]12,AS120,17782,"inhibitor, single point"
C=C1CC[C@H](O)C/C1=C/C=C1\CCC[C@]2(C)[C@@H]([C@H](C)CCCC(C)C)CC[C@@H]12,CP260,17782,"inhibitor, single point"
C=C1CC[C@H](O)C/C1=C/C=C1\CCC[C@]2(C)[C@@H]([C@H](C)CCCC(C)C)CC[C@@H]12,ECU,12589,"inhibitor, single point"
C=C1CC[C@H](O)C/C1=C/C=C1\CCC[C@]2(C)[C@@H]([C@H](C)CCCC(C)C)CC[C@@H]12,W2,19011,"inhibitor, single point"
C=C1CC[C@H](O)C/C1=C/C=C1\CCC[C@]2(C)[C@@H]([C@H](C)CCCC(C)C)CC[C@@H]12,SC27B,11220,"inhibitor, single point"
C=C1CC[C@H](O)C/C1=C/C=C1\CCC[C@]2(C)[C@@H]([C@H](C)CCCC(C)C)CC[C@@H]12,HB3,11220,"inhibitor, single point"
C=C1CC[C@H](O)C/C1=C/C=C1\CCC[C@]2(C)[C@@H]([C@H](C)CCCC(C)C)CC[C@@H]12,N140,10000,"inhibitor, single point"

The last 4 entries again:

- C=C1CC[C@H](O)C/C1=C/C=C1\CCC[C@]2(C)[C@@H]([C@H](C)CCCC(C)C)CC[C@@H]12 [W2] : fitted potency 19011 nM (inhibitor, single point)
- C=C1CC[C@H](O)C/C1=C/C=C1\CCC[C@]2(C)[C@@H]([C@H](C)CCCC(C)C)CC[C@@H]12 [SC27B] : fitted potency 11220 nM (inhibitor, single point)
- C=C1CC[C@H](O)C/C1=C/C=C1\CCC[C@]2(C)[C@@H]([C@H](C)CCCC(C)C)CC[C@@H]12 [HB3] : fitted potency 11220 nM (inhibitor, single point)
- C=C1CC[C@H](O)C/C1=C/C=C1\CCC[C@]2(C)[C@@H]([C@H](C)CCCC(C)C)CC[C@@H]12 [N140] : fitted potency 10000 nM (inhibitor, single point)

From PubChem BioAssay record AID504749 (NCATS, 2011).